The list shows a part of the results.

The test deals with SARS-CoV-2 3_SL3base RNA. The test can be described thus: NMR binding call after quantification (hit when 2 of 3 NMR criteria are met) (binary (1 = binding, 0 = not binding)); higher = binding. As to conditions: RNA concentration 10 µM; fragment concentration 200 µM; 293 K.
`CCS(=O)(=O)NCc1ccc2c(c1)OCO2`: the NMR binding call was determined as 0.
As for `Nc1ccc(S(=O)(=O)Nc2ccccn2)cc1`, the NMR binding call worked out at 0.
In the case of `Cc1cc(C(=O)NC(C)C)on1` it was 0; in that of `Cc1ccsc1CNC(C)(C)CO`, 0; in that of `Cc1nn(Cc2c(C)noc2C)c(=O)s1`, 0.
The figure for `CC(C)NC(=O)c1cc[nH]n1` is 0; for `CC(C)NC(=O)N(C)Cc1cnn(C)c1` it is 0.
The figure for `CC(C)N1CCCC(CO)C1` (stereo not given) is 0; for `CC1COCCN1CCN` (stereo not given) it is 0.
`CC(C)(O)CNC1CCOCC1`: the NMR binding call amounted to 0.
The figure for `CC(=O)NCC1(c2ccccc2)CCOCC1` is 0; for `CNC(=O)c1ccc(S(N)(=O)=O)cc1` it is 0; for `CN(C)Cc1nc(C2(N)CCCC2)no1` it is 0.
In the case of `CC(O)CNCc1c(Cl)cccc1Cl` (stereo not given) it was 0.
In the case of `O=C(Nc1ccc(O)cc1)N1CCOCC1` it was 0; in that of `CC1CCCN(C(=O)CO)C1` (stereo not given), 0.
In the case of `CNc1ncc(C(F)(F)F)cc1Cl`, the NMR binding call turned out to be 0.
In the case of `O=C(NCc1ccco1)NC1CCCCC1` it was 0; in that of `CC(=O)Nc1ccc(CC(N)=O)cc1`, 0.
Consider `NC(=O)N1CCN(C(=O)c2ccco2)CC1`, for which the NMR binding call stood at 0.
`Cc1cnc(N2CCNCC2)s1.Cl.Cl` came in with an NMR binding call of 0.
In the case of `O=C(c1c(F)cccc1F)N1CCCC1` it was 0; in that of `CC(Oc1ccc(-c2ccccc2)cc1)C(=O)O` (stereo not given), 0.
`Cl.O=C(O)CCN1CCCCC1` returned an NMR binding call of 0.
The figure for `CC(C)n1cc(C(=O)O)nn1` is 0; for `CN1CCN(c2ncccc2F)CC1=O` it is 0; for `COc1cc(C(=O)O)cc(OC)c1OC` it is 0.
Take `Cc1csc(CNC(=O)C2CCC2)n1`: the NMR binding call came out at 0.
In the case of `CNC(=O)CN1CCNCC1` it was 0; in that of `Cc1cccc(NC(=O)CN2CCOCC2)c1C`, 0.
The figure for `O=C(Nc1ccc(F)cc1)Nc1ccc(F)cc1` is 0; for `COc1ccc(C(=O)Nc2ccccc2F)cc1` it is 0; for `O=C(c1c(F)cccc1F)N1CCCCCC1` it is 0.
Compound `Cc1ccc(NC(=O)C2CCCO2)nc1` (stereo not given) yielded an NMR binding call of 0.
The figure for `CC(=O)Nc1ccc(F)c(C(=O)O)c1` is 0; for `Nc1ccccc1OCc1ccccc1` it is 0.
The figure for `O=C(c1ccco1)N1CCN(C(=O)C2CC2)CC1` is 0.
For `COc1ccc(C(=O)C2CCNCC2)cc1`, the NMR binding call was found to be 0.
Turning to `Cc1nnc(CN2CCC=C(F)C2)s1`, the NMR binding call was 0.
The figure for `NC(=O)c1ccc(OCc2ccccc2)cc1` is 0.

The record behind these values is the supplement of paper PMC8426693.
